{
  "sequences": {"note": "Protein sequences, listed by entry. Tags and fused reporters are not part of them.", "UniProt O60603": "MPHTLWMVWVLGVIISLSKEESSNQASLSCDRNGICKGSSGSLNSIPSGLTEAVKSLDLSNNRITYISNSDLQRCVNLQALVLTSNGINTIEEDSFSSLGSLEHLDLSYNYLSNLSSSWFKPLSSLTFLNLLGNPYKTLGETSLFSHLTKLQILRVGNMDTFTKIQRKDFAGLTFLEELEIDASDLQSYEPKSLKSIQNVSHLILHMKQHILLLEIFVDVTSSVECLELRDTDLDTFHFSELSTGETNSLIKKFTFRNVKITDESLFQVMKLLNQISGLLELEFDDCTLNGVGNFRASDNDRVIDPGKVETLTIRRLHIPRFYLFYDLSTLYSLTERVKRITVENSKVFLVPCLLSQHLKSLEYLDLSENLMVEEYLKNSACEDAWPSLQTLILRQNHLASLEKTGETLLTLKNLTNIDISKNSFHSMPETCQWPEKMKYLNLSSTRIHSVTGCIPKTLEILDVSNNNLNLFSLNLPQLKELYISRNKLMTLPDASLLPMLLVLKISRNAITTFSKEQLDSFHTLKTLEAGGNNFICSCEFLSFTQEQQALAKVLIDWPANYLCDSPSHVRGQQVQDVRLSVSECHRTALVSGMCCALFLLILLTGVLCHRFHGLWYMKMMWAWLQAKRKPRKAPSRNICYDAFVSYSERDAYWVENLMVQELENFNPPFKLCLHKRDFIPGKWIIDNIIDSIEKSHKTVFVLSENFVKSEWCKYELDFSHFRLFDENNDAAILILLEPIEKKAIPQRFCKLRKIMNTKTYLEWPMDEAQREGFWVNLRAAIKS"},
  "source": "patent US12636342B2",
  "about": "“TARS derived from Akkermansia muciniphila or fragment thereof, and use thereof” (KOREA RESEARCH INSTITUTE OF BIOSCIENCE AND BIOTECHNOLOGY, priority 2020, dated 2026)",
  "binders": {"B1": {"name": "His-tagged Akkermansia muciniphila threonyl-tRNA synthetase (AmTARS-His) (enzyme, not shown: small tags and cut ends)", "chain": "MSEHKERKTLEERQQMSDLERLRHSCAHVLATAICRLWPDAQLAGGPAVDNGFYYDVELDHRISTEDFERIEEEMKKVVKENQVFQKEVISRADAMKMAESGELGALGPRSEPSRFKIDLLNDIPEDEEISLYRNGDFTDLCAGPHVGRTGNCKAFKIMSVASAFYKGDKNRPMLQRIYGTCFPNRTQLDEHLERLEEARRRDHRKLGRELGLFCIDESVGQGLILWKPKGALIRRSLQDFITEELDKLGYSQVYTPNIGKLDLYRTSGHFPYYQESQYAPIPERDAMEKLSQEGASCAELFNGLATGTIEGYMLKPMNCPHHIKIYANDAHSYRDLPVRLAEFGTVYRWEQSGELGGMTRVRGFTQDDAHIFCTPDQLAGEIRQCLGIVKTIFGTLGMTDYRVRLSMRDPESDKYVGSPENWDKAEQALREAAEWLGADYSEEAGEAAFYGPKIDFIVRDAIGREWQLGTVQVDYNLPERFDLHYTGADNKPHRPVMVHRAPFGSMERFTGLLIEHFEGKFPTWLSPEQVRVLPISDKVTDVAAAHRTALAARGVRVTVDETPDKIGAKIRNARLDRVPYMLVLGQREAEDGTVSVRHRDKGDLGAMPFEQFADLVAREIAERHISPVI"}, "B2": {"name": "Strep-tagged Akkermansia muciniphila threonyl-tRNA synthetase (Strep-AmTARS) (enzyme)", "chain": "B1 chain", "notes": "The tag is put N-terminal from the name 'Strep-AmTARS'; not shown: 2 x Strep tag from vector pEXPR-IBA105"}},
  "key": {"[1]": {"target": "FLAG-tagged Toll-like receptor 2 (TLR2-FLAG) (human) (UniProt O60603)", "experiment": "in vitro Ni-NTA pull-down with purified proteins, SDS-PAGE (FIG. 28B)"}, "[2]": {"target": "FLAG-tagged Toll-like receptor 2 (TLR2-FLAG) (human) (UniProt O60603)", "experiment": "in vitro Ni-NTA pull-down with purified TLR2-FLAG and His-tagged AmTARS, SDS-PAGE"}, "[3]": {"target": "endogenous TLR2 of human THP1 cells (human) (UniProt O60603)", "experiment": "His-tag pull-down of THP1 membrane or cytoplasmic extract with His-tagged AmTARS, LC-MS/MS"}, "[4]": {"target": "FLAG-tagged Toll-like receptor 2 (TLR2-FLAG) (human) (UniProt O60603)", "experiment": "pull-down from HEK 293T lysates, western blot (FIG. 28A)"}, "[5]": {"target": "FLAG-tagged Toll-like receptor 2 (TLR2-FLAG) (human) (UniProt O60603)", "experiment": "Strep-Tactin pull-down from HEK 293T cells co-expressing Strep-AmTARS and TLR2-FLAG, immunoblot"}},
  "note": "These are yes or no findings as the source states them, for the method shown. Binding seen in cells or lysates may run through a third protein. Some results given as binding are weak or reduced against the parent protein; the word gives no strength. Tags and fused reporters may be left off the sequences shown.",
  "data": [
    {"binder": "B1", "values": [
      {"measurement": "binding", "setting": "[1]", "value": "binds"},
      {"measurement": "binding", "setting": "[2]", "value": "binds"},
      {"measurement": "binding", "setting": "[3]", "value": "binds"}
    ]},
    {"binder": "B2", "values": [
      {"measurement": "binding", "setting": "[4]", "value": "binds"},
      {"measurement": "binding", "setting": "[5]", "value": "binds"}
    ]}
  ]
}
